According to PubChem BioAssay AID2551 (National Center for Advancing Translational Sciences (NCATS), 2010):
The campaign covered roughly 310,000 compounds. About 17,000 (5.5%) were called active. The inconclusive results got no clear call from the source; some entries with a clear call stand among them for comparison. The call rests on the fitted dose curve; in most records, active means well fitted inhibition curve with a large enough effect; inconclusive means small, poorly fitted or top-dose-only effect, or effect the other way; inactive means no such curve, though single readings can be large or run the other way. Potencies of inconclusive entries are doubtful fits and often do not repeat.

Amino acid sequences for entries named in this document (tags omitted). A change or cut given only in a name is not applied to a line headed by its entry.
UniProt P51450: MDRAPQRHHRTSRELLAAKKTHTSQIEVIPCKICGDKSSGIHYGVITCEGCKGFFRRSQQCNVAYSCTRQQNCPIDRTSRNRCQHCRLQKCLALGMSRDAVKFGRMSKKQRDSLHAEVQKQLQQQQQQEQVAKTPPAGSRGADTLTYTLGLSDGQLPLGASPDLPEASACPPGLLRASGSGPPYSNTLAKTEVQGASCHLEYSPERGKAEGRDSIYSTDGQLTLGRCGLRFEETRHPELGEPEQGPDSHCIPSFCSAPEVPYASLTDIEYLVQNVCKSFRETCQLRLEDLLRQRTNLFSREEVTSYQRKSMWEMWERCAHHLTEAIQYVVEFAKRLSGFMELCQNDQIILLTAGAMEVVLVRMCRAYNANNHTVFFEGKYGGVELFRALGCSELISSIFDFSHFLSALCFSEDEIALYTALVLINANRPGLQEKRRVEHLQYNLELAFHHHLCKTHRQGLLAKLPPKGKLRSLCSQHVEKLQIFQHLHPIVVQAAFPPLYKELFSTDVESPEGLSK

target: Nuclear receptor ROR-gamma (Mus musculus) (UniProt P51450); experiment: qHTS for inhibitors of ROR gamma transcriptional activity; settings: Drosophila S2 Gal4-RORgamma UAS-luciferase reporter, 20 h; series mostly up to 53.6 µM; further: nearly all actives have a fitted effect of over 60% in size
How it was run: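 Luminescence from a UAS-regulated Photinus luciferase reporter in stably transfected Drosophila Schneider cells is measured; decreased signal marks ROR gamma inhibition. Fusion expression is induced by 700 uM copper sulfate for 20 hr.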
Potency means the concentration at half of the fitted maximal effect.

SMILES	Potency
Cc1cc(C)c(S(=O)(=O)Nc2ccncc2)cc1C	inconclusive: 2.24 µM [activator, partial curve, poor fit]
CCc1nnc(NC(=O)CSc2nc3cc(OC)ccc3cc2C)s1	inconclusive: 35.5 µM [inhibitor, single point]
Cc1cccc(OCC(O)Cn2c(=N)n(CCN3CCCCC3)c3ccccc32)c1 (stereo not drawn)	inactive
CCc1ccc(-c2cc(C(=O)NCc3ccccn3)c3ccccc3n2)cc1	inconclusive: 35.5 µM [inhibitor, single point]
CCCCCSc1nc2c(c(=O)[nH]c(=O)n2C)n1C	inactive
O=C1CNC(=S)N1CCc1ccccc1Cl	inconclusive: 15.8 µM [inhibitor, single point]
O=C(CSc1n[nH]c(-c2ccccc2)n1)Nc1ncccn1	inactive
COc1ccc(/C=N/NC(=S)Nc2ccccc2)cc1COc1cccc(C)c1C	active: 0.355 µM
CCOC(=O)c1ccc(NC(=S)N(CCN(C)C)C(C)c2ccncc2)cc1 (stereo not drawn)	inactive
Cc1ccc(OCc2ccc(-c3ccccc3)cc2)c([N+](=O)[O-])n1	inconclusive: 20 µM [activator, partial curve]
Cc1oc(-c2cccs2)nc1CS(=O)CC(=O)NC1CCCCCC1 (stereo not drawn)	inactive
Cc1ccc(Nc2nc(N)nc(CN3CCN(c4ccccc4)CC3)n2)cc1Cl	inconclusive: 10 µM [inhibitor, partial curve, poor fit]
CCc1ccc2[nH]c(C(=O)Nc3ccc(Br)c(C)n3)cc2c1	inactive
CC(=O)NS(=O)(=O)c1ccc(NC(=O)/C=C/c2ccco2)cc1	inactive
CCN1C(c2ccccc2)=C(c2ccccc2)S/C1=C/C=C1\SC(=S)N(C)C1=O	inactive
O=C(N/N=C/c1ccccc1F)c1csc2c1CCCC2	inconclusive: 15.8 µM [inhibitor, single point]
COc1ccc(/C(C)=N/N2C(C)CCCC2C)c(OC)c1 (stereo not drawn)	active: 12.6 µM
O=C(O)Cc1ccc2c(c1)N(S(=O)(=O)c1cccs1)CC(C(=O)O)O2 (stereo not drawn)	inactive
O=C(CCC1CCCC1)Nc1ccc([N+](=O)[O-])cn1	inconclusive: 2.51 µM [activator, partial curve]
CC(/C=N/N1C(=O)CSC1=S)=C\c1ccccc1	active: 11.2 µM
COC(=O)c1sccc1NC(=O)c1csc(C)c1	inconclusive: 35.5 µM [activator, single point]
COc1cc(/C=C/C(=O)N2CCN(C(=O)/C=C/c3cc(OC)c(OC)c(OC)c3)CC2)cc(OC)c1OC	inactive
Cc1ccc(Nc2nnc(SC3CCOC3=O)s2)cc1 (stereo not drawn)	inconclusive: 6.31 µM [activator, single point]
CCOC(=O)c1cccc(Nc2ncnc3ccc(C)cc23)c1	inconclusive: 11.2 µM [activator, partial curve]

Quoted from the listing.
COc1cc(/C=C/C(=O)N2CCN(C(=O)/C=C/c3cc(OC)c(OC)c(OC)c3)CC2)cc(OC)c1OC | Potency: inactive
CCN1C(c2ccccc2)=C(c2ccccc2)S/C1=C/C=C1\SC(=S)N(C)C1=O | Potency: inactive
Cc1ccc(Nc2nnc(SC3CCOC3=O)s2)cc1 (stereo not drawn) | Potency: inconclusive: 6.31 µM [activator, single point]

Later entries:

SMILES	Potency
CC(C)Cn1cnc2c(c(-c3ccccc3)c(-c3ccccc3)n2Cc2ccco2)c1=N	inconclusive: 28.2 µM [inhibitor, partial curve, poor fit]
C=CCn1c(SCC(=O)Nc2ccccc2-c2ccccc2)nc2cc(C(=O)O)ccc2c1=O	inconclusive: 5.01 µM [activator, partial curve]
Cc1ccc(C(=O)Oc2oc(-c3ccco3)nc2C=Nc2ccccc2)cc1	inactive
CCN(C(=O)CN1CCN(c2ccc(O)cc2)CC1)c1c(N)n(Cc2ccccc2)c(=O)[nH]c1=O	inactive
COc1ccc(CNc2nc3ccccc3n2CCN2CCCCC2)cc1	active: 15.8 µM
O=C(COc1ncnc2cc([N+](=O)[O-])ccc12)N(CCc1ccccc1)Cc1ccccc1	inconclusive: 17.8 µM [activator, partial curve, poor fit]
CCN1CCN(c2ccc(S(=O)(=O)N3CCCCC3)cc2NC(=O)COc2ccc(Cl)c(C)c2)CC1	active: 0.1 µM
O=C(NN=C1CCCC1)c1ccc(Br)cc1	inconclusive: 8.91 µM [inhibitor, partial curve, poor fit]
COc1ccccc1-c1cn[nH]c1-c1ccc(O)cc1O	inconclusive: 35.5 µM [activator, single point]
O=C(Cc1ccc2c(c1)OCCO2)N1CCN(S(=O)(=O)c2cccc(Cl)c2Cl)CC1	inconclusive: 25.1 µM [activator, single point]
CC(/C=N/NC(=O)c1cc(-c2cccnc2)nc2c1c(C)nn2-c1ccccc1)=C\c1ccccc1	inconclusive: 8.91 µM [activator, partial curve]
O=C(Cc1ccc([N+](=O)[O-])cc1)N1CCCCCC1	inactive
COc1ccc(CCNC(=O)Cn2nnc(-c3ccc(N(C)C)cc3)n2)cc1OC	inconclusive: 15.8 µM [activator, partial curve]
COc1ccc(C(C)=O)cc1CC(=O)N(Cc1ccccc1)c1ccccc1	inconclusive: 14.1 µM [activator, partial curve]
Nc1c(-c2n[nH]c(=S)n2-c2ccc(Cl)cc2Cl)cnn1-c1ccccc1	active: 2.82 µM
CC(=O)c1c(C)[nH]c(C(=O)OCC(=O)Nc2ccc(Cl)cc2[N+](=O)[O-])c1C	inconclusive: 35.5 µM [inhibitor, single point]
CN(C(=O)COC(=O)c1ccc(S(=O)(=O)N2CCOCC2)cc1)C1CCCCC1	inactive
CCCCN(CCCC)c1ccc(C(=O)c2ccccc2C(=O)O)c(O)c1	inconclusive: 22.4 µM [activator, single point]
CS(=O)(=O)N1CCC(C(=O)Nc2ccccc2)CC1	inactive
CCOC(=O)c1ccc(NS(=O)(=O)c2ccc(SC)cc2)cc1	inconclusive: 1.26 µM [activator, partial curve]
COc1ccc2cc3cc(C(=O)N4CCN(Cc5ccc6c(c5)OCO6)CC4)oc3nc2c1	inactive
Cc1ccc(C)n1-c1ccc(C#N)cn1	inactive
O=Cc1cn(CCOc2ccccc2F)c2ccccc12	inconclusive: 31.6 µM [activator, single point]
C=CCn1c(N/N=C/c2ccc(O)cc2)nc2ccccc2c1=O	inconclusive: 20 µM [inhibitor, single point]
